# Reference: patent US20240165226A1, “COMBINATION TREATMENT OF CD38-EXPRESSING TUMORS” (GENMAB A/S, priority 2006, published 2024)
# B1: -024: human monoclonal IgG1 anti-CD38 antibody, VL region SEQ ID No:22 and VH region SEQ ID No:27 (antibody, listed as Homo sapiens, V domains shown)
# VH: EVQLVQSGAEVKKPGESLKISCKGSGYSFSNYWIGWVRQMPGKGLEWMGIIYPHDSDARYSPSFQGQVTFSADKSISTAYLQWSSLKASDTAMYYCARHVGWGSRYWYFDLWGRGTLVTVSS
# VL: EIVLTQSPATLSLSPGERATLSCRASQSVSSYLAWYQQKPGQAPGLLIYDASNRASGIPARFSGSGSGTDFTLTISSLEPEDFAVYYCQQRSNWPLTFGGGTKVEIK
# Tested on: frozen human tissue
# Experiment: Immunohistochemistry on human tissues
# Assay type: binding
# Conditions: liver endothelium
molecule,measurement,value
B1,staining of endothelial cells,No staining
